Publication PMC5945585
These are yes or no findings as the source states them, for the method shown. Binding seen in cells or lysates may run through a third protein. These calls come from enrichment with a bait or labelling near it, and not all partners need be listed.

Protein sequences, listed by entry. Tags and fused reporters are not part of them.
UniProt Q14781: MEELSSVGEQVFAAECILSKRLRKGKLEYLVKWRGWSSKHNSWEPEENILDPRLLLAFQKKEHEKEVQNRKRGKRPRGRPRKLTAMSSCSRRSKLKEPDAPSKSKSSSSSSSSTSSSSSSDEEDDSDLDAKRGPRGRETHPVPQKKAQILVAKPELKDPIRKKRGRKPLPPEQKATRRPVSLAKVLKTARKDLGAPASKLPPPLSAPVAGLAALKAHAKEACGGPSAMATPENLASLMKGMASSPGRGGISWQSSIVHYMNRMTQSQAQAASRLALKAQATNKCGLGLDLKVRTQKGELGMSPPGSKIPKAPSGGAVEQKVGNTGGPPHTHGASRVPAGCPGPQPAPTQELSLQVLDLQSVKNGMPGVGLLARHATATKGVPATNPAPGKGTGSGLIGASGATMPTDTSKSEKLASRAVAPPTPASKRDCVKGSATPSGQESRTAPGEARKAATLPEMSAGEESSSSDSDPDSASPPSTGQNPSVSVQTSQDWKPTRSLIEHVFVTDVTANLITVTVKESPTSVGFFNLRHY

Biological target: N-terminal GFP-tagged CBX2 (Tet-On inducible HeLa stable line) (human) (UniProt Q14781)
Experiment: affinity purification with mass spectrometry; GFP-Trap of GFP/CBX2 from HeLa nuclear extract (1 mg) against wt HeLa, triplicate; 300 mM NaCl, 0.15% NP-40, 20 mM HEPES-KOH pH 7.9, ethidium bromide; label-free LC-MS/MS

binding: binds
B1: CBX4 (endogenous) (protein, UniProt O00257 1-560)
chain: MELPAVGEHVFAVESIEKKRIRKGRVEYLVKWRGWSPKYNTWEPEENILDPRLLIAFQNRERQEQLMGYRKRGPKPKPLVVQVPTFARRSNVLTGLQDSSTDNRAKLDLGAQGKGQGHQYELNSKKHHQYQPHSKERAGKPPPPGKSGKYYYQLNSKKHHPYQPDPKMYDLQYQGGHKEAPSPTCPDLGAKSHPPDKWAQGAGAKGYLGAVKPLAGAAGAPGKGSEKGPPNGMMPAPKEAVTGNGIGGKMKIVKNKNKNGRIVIVMSKYMENGMQAVKIKSGEVAEGEARSPSHKKRAADERHPPADRTFKKAAGAEEKKVEAPPKRREEEVSGVSDPQPQDAGSRKLSPTKEAFGEQPLQLTTKPDLLAWDPARNTHPPSHHPHPHPHHHHHHHHHHHHAVGLNLSHVRKRCLSETHGEREPCKKRLTARSISTPTCLGGSPAAERPADLPPAAALPQPEVILLDSDLDEPIDLRCVKTRSEAGEPPSSLQVKPETPASAAVAVAAAAAPTTTAEKPPAEAQDEPAESLSEFKPFFGNIIITDVTANCLTVTFKEYVTV
